{"sequences": {"note": "Chains of the proteins cited; added tags and fusions are not shown.", "UniProt P31596": "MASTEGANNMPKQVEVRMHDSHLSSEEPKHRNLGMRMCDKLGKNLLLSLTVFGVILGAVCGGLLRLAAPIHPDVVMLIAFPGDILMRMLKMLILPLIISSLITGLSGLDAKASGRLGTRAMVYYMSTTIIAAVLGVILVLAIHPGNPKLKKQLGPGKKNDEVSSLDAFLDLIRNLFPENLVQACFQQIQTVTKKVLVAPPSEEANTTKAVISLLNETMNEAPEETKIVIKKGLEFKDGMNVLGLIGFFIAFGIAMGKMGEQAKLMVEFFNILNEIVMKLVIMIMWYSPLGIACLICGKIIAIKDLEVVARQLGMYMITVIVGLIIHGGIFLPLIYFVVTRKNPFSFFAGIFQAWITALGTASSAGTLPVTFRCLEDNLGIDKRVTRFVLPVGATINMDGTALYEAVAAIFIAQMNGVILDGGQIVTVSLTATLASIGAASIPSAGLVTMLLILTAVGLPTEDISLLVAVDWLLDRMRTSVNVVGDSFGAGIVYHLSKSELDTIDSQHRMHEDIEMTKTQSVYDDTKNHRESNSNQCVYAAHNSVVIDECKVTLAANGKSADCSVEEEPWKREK"}, "source": "paper PMC4046997", "key": {"[1]": {"target": "glutamate transporter GLT-1 (rat (endogenous in adult rat brain)) (UniProt P31596)", "test": "co-IP; adult rat brain lysate (150 mM NaCl, 1 mM EDTA, 100 mM Tris HCl pH 7.4, 1% Triton X-100, 1% Na deoxycholate), 4°C; precipitated with anti-GLAST or anti-GLT-1 antibody and protein-G agarose, rabbit IgG as control; immunoblot for Na,K-ATPase α1 and α2"}, "[2]": {"target": "T1, glutamate/Na+ co-transporter GLAST (rat (endogenous in adult rat brain)) (UniProt P24942)", "T1 sequence": "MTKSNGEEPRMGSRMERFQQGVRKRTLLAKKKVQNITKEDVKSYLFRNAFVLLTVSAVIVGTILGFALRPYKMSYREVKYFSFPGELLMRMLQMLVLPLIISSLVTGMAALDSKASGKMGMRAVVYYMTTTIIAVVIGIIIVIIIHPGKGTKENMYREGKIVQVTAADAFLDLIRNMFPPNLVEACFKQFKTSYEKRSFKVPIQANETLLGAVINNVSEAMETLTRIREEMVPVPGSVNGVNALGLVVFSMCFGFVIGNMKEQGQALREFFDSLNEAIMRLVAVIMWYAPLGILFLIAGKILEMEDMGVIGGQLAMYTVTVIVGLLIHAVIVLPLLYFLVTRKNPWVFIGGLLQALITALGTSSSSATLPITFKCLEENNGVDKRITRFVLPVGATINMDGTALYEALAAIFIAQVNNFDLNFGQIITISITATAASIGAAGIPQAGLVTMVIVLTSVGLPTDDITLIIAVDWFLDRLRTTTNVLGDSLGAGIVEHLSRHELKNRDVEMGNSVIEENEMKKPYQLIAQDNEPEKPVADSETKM", "test": "co-IP; adult rat brain lysate (150 mM NaCl, 1 mM EDTA, 100 mM Tris HCl pH 7.4, 1% Triton X-100, 1% Na deoxycholate), 4°C; precipitated with anti-GLAST or anti-GLT-1 antibody and protein-G agarose, rabbit IgG as control; immunoblot for Na,K-ATPase α1 and α2"}}, "note": "These are yes or no findings as the source states them, for the method shown. Binding seen in cells or lysates may run through a third protein. Some results given as binding are weak or reduced against the parent protein; the word gives no strength."}
{"substance": "Na,K-ATPase α2 subunit (from UniProt P06686 1-1020)", "values": [{"measurement": "binding", "setting": "[1]", "result": "binds"}, {"measurement": "binding", "setting": "[2]", "result": "binds"}]}
